# Data: PubChem BioAssay AID1487 (National Center for Advancing Translational Sciences (NCATS), 2009)
# This is one part of the list. Further columns of the screen follow, without active or inactive calls. Compounds called inactive in the main read-out are mostly missing here. Words in brackets tell the shape of the fitted curve; partial curves, single points and poor fits give uncertain potencies.
# Experiment: qHTS Assay for Modulators of Lamin A Splicing
# Conditions: HeLa LMNA splicing GFP/RFP minigene ratio, 48 h
# Method in brief: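 S3 HeLa cells stably expressing lamin A-EGFP splicing minigene plus DsRed2, 600 cells/well, 48 h compound exposure at 37C. Laser-scanning cytometry; analysed as GFP (500-530 nm)/RFP (575-640 nm) total intensity ratio; 0.5% DMSO vehicle.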
# [1] = measured here: GFP splicing reporter channel
# [2] = measured here: RFP viability control channel
SMILES,AC50 [1],AC50 [2]
COc1cccc(CNC(=O)CCC2CCCN(C(=O)c3ccc(OC)c(F)c3)C2)c1 (stereo not drawn),"35.5 µM [falling, partial curve, poor fit]","22.4 µM [falling, partial curve]"
COc1cccc(CN2CCN(Cc3nc4c(s3)CCCC4)CC2CCO)c1 (stereo not drawn),"3.55 µM [rising, partial curve]",
Cn1c(NCc2ccco2)nc2c1c(=O)n(Cc1ccc(Br)cc1)c(=O)n2C,"5.01 µM [rising, single point]","15.8 µM [rising, single point]"
O=C(NCCCn1ccnc1)c1cc(-c2ccccc2)on1,"2 µM [falling, partial curve, poor fit]","0.447 µM [falling, full curve, poor fit]"
O=C(/C=C/c1ccccc1)NCCSCc1ccccc1Cl,,"20 µM [rising, single point]"
Cc1ccc(NC(=O)CSc2ncnc3ccccc23)cc1S(=O)(=O)N1CCCCCC1,,"12.6 µM [rising, single point]"
Nc1nc(CN2CCN(Cc3ccccc3)CC2)nc(N2CCCc3ccccc32)n1,"0.0126 µM [falling, full curve, poor fit]","31.6 µM [falling, partial curve]"
O=C(CSc1ccc(Cl)cc1)c1ccco1,"20 µM [rising, single point]",
CCN1CCCC(CO)(Cc2ccccc2)C1 (stereo not drawn),"2.51 µM [rising, partial curve]",
CC(Sc1ncc(S(=O)(=O)c2ccc(C(C)C)cc2)c(N)n1)C(=O)Nc1ccccc1 (stereo not drawn),"0.794 µM [falling, full curve]","0.794 µM [falling, full curve, poor fit]"
CC(C)(C)c1ccc(CN2C3=NCCCN3c3ccccc32)cc1,,"11.2 µM [rising, partial curve]"
CCOC(=O)c1c(C)nc(C)c(C(=O)OCC)c1-c1ccccc1,,"6.31 µM [rising, partial curve, poor fit]"
CCOC(=O)c1c(NC(NC(=O)C(C)C)C(Cl)(Cl)Cl)sc2c1CCC2 (stereo not drawn),"14.1 µM [rising, single point]","22.4 µM [rising, single point]"
O=C(CSc1ncnc2scc(-c3ccccc3)c12)NCc1ccc2c(c1)OCO2,"7.08 µM [rising, partial curve]","14.1 µM [rising, partial curve]"
Cn1c(SCC(=O)Nc2cccc(C(=O)O)c2)nnc1-c1cc2cc(Br)ccc2o1,"0.398 µM [rising, full curve, poor fit]",
Cc1ccc(N2CC(O)=C(c3nc4ccccc4c(=O)[nH]3)C2=N)cc1C,"0.00891 µM [rising, full curve, poor fit]","0.0178 µM [rising, full curve, poor fit]"
Cc1cccc(CSc2nc(=O)c3c(n2C)NC(=O)CC3c2cccc(O)c2)c1 (stereo not drawn),"0.01 µM [rising, full curve, poor fit]",
O=C(NCCNC[C@@H](O)COc1ccc(O)cc1)N1CCOCC1,"3.16 µM [falling, single point]","3.16 µM [falling, single point]"
CCc1ccccc1NC(=O)CCCSc1nc2ccccc2s1,"31.6 µM [rising, single point]","25.1 µM [rising, partial curve]"
CC(C)(C)c1ccc(NC(=O)COc2ccc(-n3ccnc3)cc2)cc1,,"14.1 µM [rising, partial curve]"
COC(=O)C1=C(C(=O)OC)[C@@H]2N(Cc3ccccc3)c3ccccc3[C@@]23C[C@@H](C(=O)OC)N(S(=O)(=O)c2ccc(Br)cc2)C3=N1,,"0.00631 µM [falling, full curve, poor fit]"
O=C(Nc1cc2c(cc1Br)OCCCO2)c1ccccc1,"31.6 µM [rising, single point]",
CC1Cc2nc(SCC(=O)Nc3ccc4c(c3)OCCO4)n(C)c(=O)c2S1 (stereo not drawn),"14.1 µM [rising, single point]","14.1 µM [rising, single point]"
CCC(C(=O)NCc1ccc2c(c1)CCN2C(=O)c1ccc(F)cc1)c1ccccc1 (stereo not drawn),"35.5 µM [falling, single point]","35.5 µM [falling, single point]"
Cc1ncc(CO)c(/C=N/NC(=O)c2ccc(O)cc2)c1O,,"0.251 µM [rising, full curve, poor fit]"
CCOC(=O)/C=C/S(=O)(=O)c1ccc(NC(C)=O)cc1,,"17.8 µM [falling, single point]"

# Individual results from above:
# AC50 [2], COc1cccc(CNC(=O)CCC2CCCN(C(=O)c3ccc(OC)c(F)c3)C2)c1 (stereo not drawn) reads 22.4 µM [falling, partial curve]
# AC50 [1], CCN1CCCC(CO)(Cc2ccccc2)C1 (stereo not drawn) reads 2.51 µM [rising, partial curve]
